# PMC9468603
# Molecular target: His-tagged Shp2 N-SH2 domain recombinant protein (UniProt Q06124)
# Assay: pull-down; FA fractions of MEFs incubated with or without 400 U λPPase for 30 min before pull-down with His-N-SH2 and Ni-beads; α-actinin-4 detected by Western blotting; only the target purified
substance,measurement,value
"α-actinin-4 (endogenous, mouse) (from UniProt P57780 1-912)",binding,binds

# Results are given in words; binding and its absence hold for the method and conditions named. In cells and extracts the contact can be indirect. Binding can be weak; no strength is given.
